Results published in publication doi:10.1101/2022.07.20.500667.
No constants are given. Whether binding was seen depends on the method and setting. Where a sequence is shown, tags or fusion partners need not be part of it.

Key:
[1] = molecular target: arginyltransferase 1 (ATE1) from Saccharomyces cerevisiae, apo (Saccharomyces cerevisiae) (UniProt P16639); experiment: SEC-MALS
[2] = molecular target: arginyltransferase 1 (ATE1) from Saccharomyces cerevisiae, apo (Saccharomyces cerevisiae) (UniProt P16639); experiment: SEC

binding [1]: no binding (tested: 2-8 mg/mL) | binding [2]: no binding
B1: arginyltransferase 1 (ATE1) from Saccharomyces cerevisiae, apo (enzyme, UniProt P16639 1-502)
chain: MSDRFVIWAPSMHNEPAAKCGYCHGNKGGNMDQLFALDSWAHRYMNKMDVVKIENCTIGSFVEHMDVATYDRMCNMGFRRSGKFLYKVDPLRNCCRLYTIRTAPQELNMTKELKKCISRFATRITSEDYCPAAVASSDFVGKIVNAEMNSKTFYTRFEPALYSEEKYHLFVKYQEKVHQDYNNSPKSFKRFLCDTPFGPEAVLGTQESWEQLNNWQRMKPGEKLKHMGPVHECYYYEGKLIAITVSDILPSGISSVYFIWDPDYSKWSLGKLSALRDLAIIQRTNLQYYYLGYYIEDCPKMNYKANYGAEVLDVCHSKYIPLKPIQDMISRGKLFVIGEEETKVTKELYLVDSETGRGEGFPTDNVVKYKNIAEEIYGVGGCAFKSANESALELKELYGIPYEEEDLDTIYHLKEHNGHAPNGIPNVVPGLLPLWELLDIMQSGKITDLEGRLFLFEIETEGIRPLINFYSEPPNVKKRICDVIRLFGFETCMKAVILYSEQ
